PubChem BioAssay AID1508600 (Functional Genomics Laboratory (NCATS/FGL), 2020)
The campaign covered roughly 53,000 sequences. About 3,700 (7%) were called active.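 Rule for the calls: active = gene knockdowns whose robust z-score for IL-1 alpha signal is at least 2 or at most -2, so actives lie on both sides; inactive = the rest.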 Some of the results follow.

Test: Components of the Cytosolic LPS Sensing Pathway: Gene Identification via Genome-wide siRNA Screen;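 note: robust z of the log signal after scaling to non-targeting control siRNA wells of the plate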
Details: RAW264.7 macrophages, IL-1a HTRF, actives lie on both sides, screened at 100 nM (by protocol), cells primed 5 h with Pam3CSK4 first
Summary of the method: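 Supernatant IL-1a by HTRF from RAW264.7 cells primed with Pam3CSK4 (5 hours) and transfected with LipidA (24 hour) after 48h siRNA knockdown at 100 nM; cell viability checked with CellTiter-Glo.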
In the case of GGUGUGAAGGAGAAGUUCATT against Atp6v1a, the z-score is reported as active: 2.01. With GGAGCCGUACAUCUUACACTT against Abhd1 the z-score was inactive: 0.33. For GGAAAACAUUGAAACAGUGTT against Wdr61, the z-score was inactive: 0.0679. In the case of CGCCUUUUGCAUAUCAGAGTT against Defb39, the z-score is reported as inactive: -0.8. For GCAUGCAGCGGUCCAUAUUTT against Cacna2d1, the z-score was inactive: 0.784. With CCUUAAAGCACAGUUCAAUTT against Gca the z-score was inactive: 1.27. For GGGAUCUACAUAUGAGGAATT against Tmem140, the z-score was inactive: -0.121. For GCUAGCUGGAAGACACAUATT against Seh1l, the z-score was inactive: 0.504. In the case of CCGGGUCCGAGUAGAUUUUTT against Kmt2b, the z-score is reported as inactive: 1.72. In the case of CCGACCAUCCCAAGUUAAATT against Olfr199, the z-score is reported as inactive: -1.31. With CCUUCUAGAUGUCUUAAGATT against Zfp41 the z-score was inactive: -0.244. For GGAACUGGGUCCUCAUUCCTT against Capn1, the z-score was inactive: -1.6. In the case of GGAGAUACCCUCGAGUAUATT against Lrrtm3, the z-score is reported as inactive: -0.109. In the case of CGGAUGCGACAAAAAUCACTT against Il4, the z-score is reported as inactive: 1.77. In the case of CCCAGAACGGGAUGAUUCUTT against Trex2, the z-score is reported as active: 2.77. With GGUGACCUGUUCAGAACAUTT against Timm9 the z-score was inactive: 0.302. With CCAUUCGGGUGAAGUUCCATT against Lsm7 the z-score was inactive: 1.52. For GGAGCAACAACUUAAAUGUTT against Slc16a4, the z-score was inactive: 1.18. For GGUAAAGACUGGAUGGCUATT against Art5, the z-score was active: 2.14. With GGAGAAAGACCAUUACUGUTT against Ly6e the z-score was inactive: 1.63. For GGGAGACAGUGAUGGUUACTT against Ip6k1, the z-score was inactive: 1.11. In the case of GGGUCCAAAAGAAAAGUGUTT against Zc2hc1c, the z-score is reported as inactive: 0.784. In the case of GGCAUAAACCUUCUUGCUCTT against Ccl22, the z-score is reported as inactive: -0.221. With GGACUAUGCCAGGAAACUGTT against Pgls the z-score was inactive: -0.0402. In the case of GCCACUGAGAUGUGACGAATT against Pbp2, the z-score is reported as inactive: 0.899. In the case of GAAUCGGAGGACAAAAUACTT against Emx1, the z-score is reported as inactive: 0.368. In the case of GGUGAAGUUGAAUGGAAGUTT against Crebzf, the z-score is reported as inactive: -0.9. With “GGAGGCUAUCAGAAGCAUCTT against C130021I20Rik” the z-score was inactive: 0.762. With GGGCAUUUUAACCAAAUGATT against Marchf11 the z-score was inactive: 0.544. In the case of GCCGUUUUAUUCACGUGAATT against Erp27, the z-score is reported as inactive: -1.36. With GGCACUCCUCUUUGUUUUCTT against Olfr414 the z-score was inactive: -1.82. For GGGUUCUCUUGAGUUACAGTT against Zfp60, the z-score was inactive: -1.56. For GGCAGUGAAAGAACUGGACTT against Serpina1b, the z-score was inactive: -0.181. In the case of GCACUUUACCCACUGAACCTT against Brat1, the z-score is reported as inactive: -0.522. In the case of GCUCUGCUCUUCUGAAGCATT against Dohh, the z-score is reported as active: -2.42. With GGACAAGGUCAGCAGUAUGTT against Ss18l1 the z-score was inactive: -0.0498. In the case of GGUUUUACGAAGCUUACAATT against Myo7a, the z-score is reported as inactive: 0.655. For CGAUUAACCCACUCUUGUCTT against Mapkapk2, the z-score was inactive: -0.66. In the case of CCAAAAGGACCAAUCAGUUTT against Slc1a2, the z-score is reported as inactive: 0.688. With GUUCCACUACUUCUGCUCCTT against Olfr583 the z-score was inactive: 0.41. In the case of GGUUCUAGAAAACAUGAACTT against Tdrd1, the z-score is reported as inactive: 1.13. For GCGUGUGUGCCUCUACUUGTT against Naprt, the z-score was inactive: 0.218. In the case of GGUUCAAGCAGAACAAGAATT against Fam220a, the z-score is reported as inactive: -0.727. For GAGACUAGACUAACCCUGUTT against Galr3, the z-score was inactive: -1.16. In the case of GGUGUUUUUUAUCAGUAUGTT against Adamtsl4, the z-score is reported as inactive: -1.11. With GGAUCAGAUUAUUGAGAUGTT against Rexo2 the z-score was inactive: -1.41. In the case of GGGAGUUUGACAUCUUCUATT against Lrrk1, the z-score is reported as inactive: -0.569. For GGAAGUGUUCACCCGAUUCTT against Ckb, the z-score was inactive: -0.0701. In the case of GUUUCUAGCUACCUUCCAGTT against Aqp11, the z-score is reported as inactive: 1.88. For GGAGAUACCUUAGAAGAUATT against Dlg2, the z-score was inactive: -0.074. For CCAUGCAGUACUUCAUCUUTT against Olfr1440, the z-score was inactive: 0.482. For UGAAAAGAGCAAUGAAGAATT against Olfr177, the z-score was inactive: -0.36. For GGCUCAAGGCAUUGAAGGATT against Psmg3, the z-score was inactive: -1.6. In the case of GGAGAUCCUGGCAAAAUACTT against Sgsm3, the z-score is reported as inactive: -0.604. In the case of CACGGGCAUCCUUGACUCCTT against Mbp, the z-score is reported as inactive: -0.824. In the case of GGGAUGACCUGCCAUUCAUTT against Atp7a, the z-score is reported as active: 3.47. In the case of GGCCAGUUUAAACCAGUCUTT against Frmd6, the z-score is reported as inactive: 0.583. For “GUGGUUAUCCUGUUUUUUGTT against Olfr1273-ps”, the z-score was inactive: 0.291. In the case of GGAGUUUUAGGAUAUUCGATT against Adcyap1r1, the z-score is reported as inactive: 0.29. With GCUCUCCCAUCUUUUCUAUTT against Lenep the z-score was inactive: -1.5. In the case of GGAGCUUCCUGCUAUUUUATT against Rxylt1, the z-score is reported as inactive: 0.766. In the case of CCUCAGAGCCACGACAUUUTT against Zfp28, the z-score is reported as inactive: 0.357. With GGGUCUAUUUAUUUAGUAGTT against Alg8 the z-score was inactive: 0.395. In the case of GGAACUUACACAUUUGUUCTT against Tnfsf13b, the z-score is reported as inactive: -1.11. With GCAAAGCAUUGCUCUGAGGTT against Msx1 the z-score was inactive: -0.619. For CCACUGUUUAAUAACCCUATT against Sc5d, the z-score was inactive: 0.117. With GGUUCUUCGAAGCAAUAGCTT against Sphkap the z-score was inactive: -0.973. With CCUCAUGACCCGAAAAGAGTT against Patl2 the z-score was inactive: -0.251. For GGUUUGUAUGCUAUAGUUUTT against Cldn11, the z-score was inactive: 0.922. In the case of GGCUGCAUUUAUUGAUAACTT against Kyat3, the z-score is reported as inactive: 1.77. In the case of GGGACACAUACUGUAGUAUTT against Pspc1, the z-score is reported as inactive: 0.00343. For GGAAAGCUCACUAUUGUAUTT against Nrbp2, the z-score was inactive: -1.02. With GCCAGUAGAUUACUUCAUUTT against Cnnm3 the z-score was inactive: 0.0391. In the case of GGUCCCAAGAAUUUUUAAATT against Ndc80, the z-score is reported as inactive: -1.92. In the case of GGCUUGAGUACGAAUGGGATT against Ano5, the z-score is reported as inactive: -0.24. In the case of GCUGACGGACGAAUGCUACTT against Sema6c, the z-score is reported as inactive: 0.81. With GGUGGAGACAGAAAUCCAATT against Amot the z-score was inactive: 0.23. In the case of GGACAACUGCUACGAAGUGTT against Zfp366, the z-score is reported as inactive: -0.818. In the case of GGCGAACUGUUCGAUUGCGTT against Vcpip1, the z-score is reported as inactive: -1.01. For GGGAAUCAAUGAAAAUGUGTT against Pcdh8, the z-score was inactive: -1.04. With GGUCCUAUGGAAAAAGAAATT against Msr1 the z-score was inactive: -0.324. With GGUUUUCUUCAUUCUUUCCTT against Zfp512 the z-score was inactive: 0.616. With GCUGGUCUUCUCUAUCUUATT against Olfr744 the z-score was inactive: 0.0651. In the case of GGACCCAAGAAGUUUUAUUTT against Zbbx, the z-score is reported as inactive: 1.3. With GGACUUUGAUCUGGAGCCATT against C1rl the z-score was inactive: -0.826. With UCCAUACAGCAUCCAGUAATT against Mup20 the z-score was inactive: -0.937. In the case of CCACUGGACAGGAACAAAGTT against Rims1, the z-score is reported as inactive: -1.2. With GGUACACAAAUGCUCGGGATT against Rnf130 the z-score was inactive: 0.223. For GGAACCUAACAGAGAAACATT against Prpsap2, the z-score was inactive: -0.166. For GCUUCUAGUCAACAUCCAGTT against Klf15, the z-score was active: 2.07. In the case of GGAGAGAAAGAACUGGAAATT against Fam78a, the z-score is reported as inactive: 0.357. With “CCAAGGAGCAUUCUUUGGUTT against 1700024B05Rik” the z-score was inactive: -0.0487. For GGAUAUCCCAGACCCAUCATT against Prtg, the z-score was inactive: -1.42. In the case of GCACAUUGAUGCUUAAACGTT against Stimate, the z-score is reported as inactive: 0.621. For GGCUCAGAGUACUUAAAUATT against Agmo, the z-score was inactive: -1.6. With GGCUGUCUUCAUCUUAGAUTT against Copz2 the z-score was active: -2.61. In the case of CCCUCCAUGGAAAUGACAUTT against Slit3, the z-score is reported as active: 2.4. For UGACAUAUCUUAAAUGUGGTT against Tas2r121, the z-score was inactive: -0.528. With GGUUAAAGUGUAUUUACAGTT against Fkbp14 the z-score was inactive: 0.124. In the case of CCCAUUUUGAAGUGCUACCTT against Cyp27b1, the z-score is reported as inactive: -0.24. For CGACGACAUCAUAAAUUUCTT against Rapgef1, the z-score was inactive: 1.99. With GGGAAUGAAAAGUCAAAAGTT against Stard7 the z-score was inactive: -0.047. In the case of GGUCUAAAGUACAUCCACUTT against Mapk13, the z-score is reported as inactive: -0.939. For GGAGAAUUUACCUCCUAUUTT against Rpap3, the z-score was inactive: 0.436. In the case of GGUACAAACGUGUAGUAUCTT against Lrrc14, the z-score is reported as inactive: 0.689. In the case of GGUGAUCAACCUGUACAAGTT against Gga1, the z-score is reported as inactive: 1.15. With GGUGAAUCCUUCGUGGACATT against Nat8 the z-score was inactive: -1.08.
